{
  "source": "paper PMC7819943",
  "about": "“Rice protein-binding microarrays: a tool to detect cis-acting elements near promoter regions in rice”",
  "note": "The other results are listed elsewhere or left out.",
  "data": [
    {"molecular_target": "T1, OsSMF1 (Oryza sativa, UniProt Q6ZLB0 1-436)", "T1 sequence": "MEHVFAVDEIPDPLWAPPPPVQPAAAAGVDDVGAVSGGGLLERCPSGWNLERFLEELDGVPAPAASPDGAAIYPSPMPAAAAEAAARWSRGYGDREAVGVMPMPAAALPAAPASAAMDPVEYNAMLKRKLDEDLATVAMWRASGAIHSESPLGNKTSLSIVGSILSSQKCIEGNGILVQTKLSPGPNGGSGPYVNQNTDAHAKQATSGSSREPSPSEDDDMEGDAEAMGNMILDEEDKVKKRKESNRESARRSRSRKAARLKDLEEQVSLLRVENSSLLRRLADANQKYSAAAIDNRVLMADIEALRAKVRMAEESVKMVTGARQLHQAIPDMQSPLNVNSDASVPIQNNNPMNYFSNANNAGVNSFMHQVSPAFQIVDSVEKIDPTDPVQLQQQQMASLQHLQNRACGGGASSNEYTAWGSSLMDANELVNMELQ", "assay": "protein-binding microarray (RPBM); PBS, 2% BSA, 51.3 ng/ul salmon testes DNA, 50 uM zinc acetate, 200 nM TF, 25 C, 1 h; high values mean tight binding", "details": "protein: recombinant; tags: N-terminal polyhistidine and DsRed monomer fusion (pET32a); chain copies: 2; label: CyDye5-dUTP incorporated in the synthesized complementary strand; 3' TTTTT single-stranded linker to array surface; dsDNA, one strand shown", "summary_of_the_method": "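Polyhistidine-tagged DsRed fusions of transcription factors, joined at the N-terminus, were expressed in E. coli BL21-CodonPlus and isolated on Ni–NTA. They were incubated at 200 nM for 1 h at 25 °C on a custom Agilent array, double-stranded and BSA-blocked, in PBS with 2% BSA, salmon testes DNA and 50 µM zinc acetate. The binding signal is per-feature fluorescence intensity (arbitrary units) read on an Axon 4000B scanner after washing.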", "values": [
      {"sequence": "ATACCAAGCTCCGATGACCCCGGGCGTGTCGTGTCGGCCGCGGAGTCACCTAGTGCAG", "binding signal": "4950 fluorescence intensity (a.u.)"},
      {"sequence": "GCACGTGCGCAAGTCCATGACGTGAGCGCTTCCGGTCATTCGGAGTCACCTAGTGCAG", "binding signal": "5170 fluorescence intensity (a.u.)"},
      {"sequence": "GCCATCTGACAACCAGTAAATGTACTGTCCACCGGGCCAACGGAGTCACCTAGTGCAG", "binding signal": "6470 fluorescence intensity (a.u.)"},
      {"sequence": "AGAAGAACAGTCTGCACTCTGCACACGTCCCCATCTCCCCCGGAGTCACCTAGTGCAG", "binding signal": "5940 fluorescence intensity (a.u.)"},
      {"sequence": "GAGCAAGACACGGATCGTCGCGTCGCCAAGTCACACGCAGCGGAGTCACCTAGTGCAG", "binding signal": "5870 fluorescence intensity (a.u.)"},
      {"sequence": "GCGCGCCGTCGTGGCGCTGGCGGCCACCACGGTGGTCACCCGGAGTCACCTAGTGCAG", "binding signal": "4120 fluorescence intensity (a.u.)"},
      {"sequence": "TAGATTCCCTTCCCTTCCACTGACACGTGGGTCCCACCACCGGAGTCACCTAGTGCAG", "binding signal": "10200 fluorescence intensity (a.u.)"},
      {"sequence": "CCTTATTGTCTAGAATGATGTCATCTTTATATGATTGCAACGGAGTCACCTAGTGCAG", "binding signal": "7480 fluorescence intensity (a.u.)"},
      {"sequence": "TCCACCCGTGCGTGCGTCCCACTCGCCTCCCACTCACCTCCGGAGTCACCTAGTGCAG", "binding signal": "3470 fluorescence intensity (a.u.)"},
      {"sequence": "CCTTAGAAAAGGAAAACGGCCACATCATTCCCCACCTCATCGGAGTCACCTAGTGCAG", "binding signal": "9190 fluorescence intensity (a.u.)"},
      {"sequence": "GTCGTCAGTCCGACGCAGTGTTCCATGGGAGCCACGTATGCGGAGTCACCTAGTGCAG", "binding signal": "6930 fluorescence intensity (a.u.)"},
      {"sequence": "CTCTTGCCTCCGCCGTGGCGCCGTGGTGTGGTTTCTTGGTCGGAGTCACCTAGTGCAG", "binding signal": "4340 fluorescence intensity (a.u.)"},
      {"sequence": "GCTCGTCCTCCGCTGCACCACTTGCATCCGCGCGCGCTTCCGGAGTCACCTAGTGCAG", "binding signal": "3380 fluorescence intensity (a.u.)"},
      {"sequence": "GGCGGCAGCGACGGCGGAGGCGAGGGAGGGGAGGCGGCGGCGGAGTCACCTAGTGCAG", "binding signal": "3930 fluorescence intensity (a.u.)"},
      {"sequence": "ACCTAGAAATACGCCCGACCCACATGTCAGTGGAATACGGCGGAGTCACCTAGTGCAG", "binding signal": "3820 fluorescence intensity (a.u.)"},
      {"sequence": "AACGCCCGCGATCCACTTGCCACACCACGGCCACCACCACCGGAGTCACCTAGTGCAG", "binding signal": "3410 fluorescence intensity (a.u.)"},
      {"sequence": "CTATTGTGAGACACGTGTAGTCTGCTTGTACTCATGAGTTCGGAGTCACCTAGTGCAG", "binding signal": "11200 fluorescence intensity (a.u.)"},
      {"sequence": "ATTGGGAGCAATCACGCTGTTGATGAAGATGCTACTGTTGCGGAGTCACCTAGTGCAG", "binding signal": "3140 fluorescence intensity (a.u.)"},
      {"sequence": "GCGCCGCTCCGCCCAAAATTTCCCAAACTCCCGCCCTCCTCGGAGTCACCTAGTGCAG", "binding signal": "14900 fluorescence intensity (a.u.)"},
      {"sequence": "CACGTCGCCCTCGCCACAATCCACCTCACACGCGTGACCTCGGAGTCACCTAGTGCAG", "binding signal": "4510 fluorescence intensity (a.u.)"},
      {"sequence": "GACAGTAAGACAGACTGAGTCAGACATGGCGTACTCCCTCCGGAGTCACCTAGTGCAG", "binding signal": "8440 fluorescence intensity (a.u.)"},
      {"sequence": "TTACATACCGGTGTACACCTCATAGTTTCATGCTCCCAATCGGAGTCACCTAGTGCAG", "binding signal": "3660 fluorescence intensity (a.u.)"},
      {"sequence": "GAGGGAATACAATATAAAATGTTCGCCGATTTTATTTAGACGGAGTCACCTAGTGCAG", "binding signal": "31000 fluorescence intensity (a.u.)"},
      {"sequence": "ATAGGGGTACCTGTGCTAATCTCTGATGCCATCATCGGCACGGAGTCACCTAGTGCAG", "binding signal": "3500 fluorescence intensity (a.u.)"},
      {"sequence": "CGTGCACGCCCGCGCAGTGTCACGCCATCGCCATCTACTGCGGAGTCACCTAGTGCAG", "binding signal": "4600 fluorescence intensity (a.u.)"},
      {"sequence": "GCCGCTACATTGCACACATCAACACTAGCTTTGCATCCGTCGGAGTCACCTAGTGCAG", "binding signal": "3470 fluorescence intensity (a.u.)"},
      {"sequence": "GACCACCAACCCAGTCACTCACTGGATACGACCAGTCAAACGGAGTCACCTAGTGCAG", "binding signal": "3170 fluorescence intensity (a.u.)"},
      {"sequence": "GACAGTCGACACCAATTACGTTGGCAGCGAGACTCATACCCGGAGTCACCTAGTGCAG", "binding signal": "3710 fluorescence intensity (a.u.)"},
      {"sequence": "GGTTTCTTACCAGCCATCCGATAGCCGTGTCACAACTCACCGGAGTCACCTAGTGCAG", "binding signal": "3740 fluorescence intensity (a.u.)"},
      {"sequence": "ATTAGGCTCATTAGATTCGTCTTGCAAATTAGTCCAAGATCGGAGTCACCTAGTGCAG", "binding signal": "3640 fluorescence intensity (a.u.)"},
      {"sequence": "GACCTCGCGAACAGCCCACACGTACGTTACTGACGCCATACGGAGTCACCTAGTGCAG", "binding signal": "4360 fluorescence intensity (a.u.)"},
      {"sequence": "TTTGAATTTTCTGGAGCACGTCATTGTCAAGTCTCATGGACGGAGTCACCTAGTGCAG", "binding signal": "6480 fluorescence intensity (a.u.)"},
      {"sequence": "ACGAACTCAAACTAAGTGCCATTGTTCGTGGCATGGCAACCGGAGTCACCTAGTGCAG", "binding signal": "3360 fluorescence intensity (a.u.)"},
      {"sequence": "GAGTTTAATAATGCGCGGCAACCCCATCACGTGTTCCACACGGAGTCACCTAGTGCAG", "binding signal": "3950 fluorescence intensity (a.u.)"},
      {"sequence": "TCTTCATCACACATGACACAGGATTCCCATGACACATGCACGGAGTCACCTAGTGCAG", "binding signal": "5270 fluorescence intensity (a.u.)"},
      {"sequence": "TGCCGCCGCAGATGTACGGTCGCCATGGCAAGCAAGTTTGCGGAGTCACCTAGTGCAG", "binding signal": "4160 fluorescence intensity (a.u.)"},
      {"sequence": "ATTTTGACAAAACAAAGTGAGTGTGCTAGCTGGATCCATACGGAGTCACCTAGTGCAG", "binding signal": "3390 fluorescence intensity (a.u.)"},
      {"sequence": "CCTCCGCCTTGTCCGCGTCCACGTCCACGGCCGCCGCCACCGGAGTCACCTAGTGCAG", "binding signal": "6310 fluorescence intensity (a.u.)"},
      {"sequence": "TGTGTCGGGGCCCTAACTTATGCAAGTTGGCCACGTCTGACGGAGTCACCTAGTGCAG", "binding signal": "3420 fluorescence intensity (a.u.)"},
      {"sequence": "GTGCACACGTATGTATATACTATATATACATACGTATAAACGGAGTCACCTAGTGCAG", "binding signal": "3560 fluorescence intensity (a.u.)"},
      {"sequence": "GACGGTGTCAAGGTCGACGTCATCCATGTAAGTCTCCCAACGGAGTCACCTAGTGCAG", "binding signal": "4870 fluorescence intensity (a.u.)"},
      {"sequence": "AAAACAACGCCATGCGTACATACACGTTCATGTGCCGCGCCGGAGTCACCTAGTGCAG", "binding signal": "3420 fluorescence intensity (a.u.)"},
      {"sequence": "CAGATTAAGCGAACAATGCCACGTGGGTCAGCACACAAGCCGGAGTCACCTAGTGCAG", "binding signal": "21400 fluorescence intensity (a.u.)"},
      {"sequence": "TCCACCCCGTTCCCATCCCCACGCATCGCCGCACACACTGCGGAGTCACCTAGTGCAG", "binding signal": "3300 fluorescence intensity (a.u.)"},
      {"sequence": "GTTGCAAGTTGCCTCGCCGCACGGGCTCCCGTCACGACTCCGGAGTCACCTAGTGCAG", "binding signal": "3350 fluorescence intensity (a.u.)"},
      {"sequence": "ACCTCATCCTCATTCGTCACCACTAGTCCTCGCTGTTGTTCGGAGTCACCTAGTGCAG", "binding signal": "32500 fluorescence intensity (a.u.)"},
      {"sequence": "GTATGGATGGATGCAGTGGAGAGAGAGGTGAGAGTAGGGGCGGAGTCACCTAGTGCAG", "binding signal": "3170 fluorescence intensity (a.u.)"},
      {"sequence": "CACTGCTTGCGTTTCAATCCAGCCGCGTGGCACTATATCGCGGAGTCACCTAGTGCAG", "binding signal": "3260 fluorescence intensity (a.u.)"},
      {"sequence": "TCGATCCGACGGTGGTGGCGGCGTTGGCGGCGTCCGCGGGCGGAGTCACCTAGTGCAG", "binding signal": "3950 fluorescence intensity (a.u.)"},
      {"sequence": "AGCTTCCAAGTCAAGATATGGTCTCCACGTATTTCTCTCTCGGAGTCACCTAGTGCAG", "binding signal": "4890 fluorescence intensity (a.u.)"},
      {"sequence": "AGTAGTAGGGCGCGACACGCGTGTACGTTGCGATAGATGTCGGAGTCACCTAGTGCAG", "binding signal": "3330 fluorescence intensity (a.u.)"},
      {"sequence": "ACACACGCGTACATGAGTTGTGATCTGGTTGTGTATATATCGGAGTCACCTAGTGCAG", "binding signal": "3520 fluorescence intensity (a.u.)"},
      {"sequence": "ATGAACAGTACCACTTAGGTGATACTTTACGTGGAGGCTCCGGAGTCACCTAGTGCAG", "binding signal": "4320 fluorescence intensity (a.u.)"},
      {"sequence": "GTCGGATCCCCGCGCAATCATACACACGTGTCGCCGTCGCCGGAGTCACCTAGTGCAG", "binding signal": "8730 fluorescence intensity (a.u.)"}
    ]}
  ]
}
